In PMC4455246:
Results are given in words; binding and its absence hold for the method and conditions named. In cells and extracts the contact can be indirect. Some entries that bind do so weakly or less than the wild type.

Sequences of proteins named here, by UniProt entry; tags and fusion partners are left off. Residues count along the entry.
UniProt P26819, residues 1-175: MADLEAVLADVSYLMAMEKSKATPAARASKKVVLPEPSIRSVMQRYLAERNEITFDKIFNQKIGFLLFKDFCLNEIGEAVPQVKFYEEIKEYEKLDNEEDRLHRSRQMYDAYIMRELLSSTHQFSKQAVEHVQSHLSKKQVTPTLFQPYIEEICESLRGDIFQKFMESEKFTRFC

Target: isolated C-terminally myc-tagged RGS homology (RH) domain of GRK3 (N-terminal amino acids 1-175) (rat) (UniProt P26819)
Assay: co-IP; lysates of lesioned rat striata infected with RH-myc lentivirus, NP-40-containing IP buffer; mouse anti-myc antibody on agarose beads, overnight at 4 °C, 3 washes; blots with rabbit anti-Gq/11 and rabbit anti-myc; uninfected intact striata as no-bait control

binding: binds
B1: endogenous Gαq (protein, UniProt P82471 1-359)
chain: MTLESIMACCLSEEAKEARRINDEIERQLRRDKRDARRELKLLLLGTGESGKSTFIKQMRIIHGSGYSDEDKRGFTKLVYQNIFTAMQAMVRAMDTLKIPYKYEHNKAHAQLVREVDVEKVSAFENPYVDAIKSLWNDPGIQECYDRRREYQLSDSTKYYLNDLDRVADPSYLPTQQDVLRVRVPTTGIIEYPFDLQSVIFRMVDVGGQRSERRKWIHCFENVTSIMFLVALSEYDQVLVESDNENRMEESKALFRTIITYPWFQNSSVILFLNKKDLLEEKIMYSHLVDYFPEYDGPQRDAQAAREFILKMFVDLNPDSDKIIYSHFTCATDTENIRFVFAAVKDTILQLNLKEYNLV
